Assay results taken from paper PMC3917433.
Results are given in words; binding and its absence hold for the method and conditions named. Some binding calls cover weakened binding; strength is not graded here.

Chains of the proteins cited; added tags and fusions are not shown. Lines headed by an entry give the natural chain unless they say otherwise; changes in a name come on top. A line that says so, or that is headed by a name, gives the form on record, which may keep a tag or linker. Residues count along the entry.
UniProt P53804: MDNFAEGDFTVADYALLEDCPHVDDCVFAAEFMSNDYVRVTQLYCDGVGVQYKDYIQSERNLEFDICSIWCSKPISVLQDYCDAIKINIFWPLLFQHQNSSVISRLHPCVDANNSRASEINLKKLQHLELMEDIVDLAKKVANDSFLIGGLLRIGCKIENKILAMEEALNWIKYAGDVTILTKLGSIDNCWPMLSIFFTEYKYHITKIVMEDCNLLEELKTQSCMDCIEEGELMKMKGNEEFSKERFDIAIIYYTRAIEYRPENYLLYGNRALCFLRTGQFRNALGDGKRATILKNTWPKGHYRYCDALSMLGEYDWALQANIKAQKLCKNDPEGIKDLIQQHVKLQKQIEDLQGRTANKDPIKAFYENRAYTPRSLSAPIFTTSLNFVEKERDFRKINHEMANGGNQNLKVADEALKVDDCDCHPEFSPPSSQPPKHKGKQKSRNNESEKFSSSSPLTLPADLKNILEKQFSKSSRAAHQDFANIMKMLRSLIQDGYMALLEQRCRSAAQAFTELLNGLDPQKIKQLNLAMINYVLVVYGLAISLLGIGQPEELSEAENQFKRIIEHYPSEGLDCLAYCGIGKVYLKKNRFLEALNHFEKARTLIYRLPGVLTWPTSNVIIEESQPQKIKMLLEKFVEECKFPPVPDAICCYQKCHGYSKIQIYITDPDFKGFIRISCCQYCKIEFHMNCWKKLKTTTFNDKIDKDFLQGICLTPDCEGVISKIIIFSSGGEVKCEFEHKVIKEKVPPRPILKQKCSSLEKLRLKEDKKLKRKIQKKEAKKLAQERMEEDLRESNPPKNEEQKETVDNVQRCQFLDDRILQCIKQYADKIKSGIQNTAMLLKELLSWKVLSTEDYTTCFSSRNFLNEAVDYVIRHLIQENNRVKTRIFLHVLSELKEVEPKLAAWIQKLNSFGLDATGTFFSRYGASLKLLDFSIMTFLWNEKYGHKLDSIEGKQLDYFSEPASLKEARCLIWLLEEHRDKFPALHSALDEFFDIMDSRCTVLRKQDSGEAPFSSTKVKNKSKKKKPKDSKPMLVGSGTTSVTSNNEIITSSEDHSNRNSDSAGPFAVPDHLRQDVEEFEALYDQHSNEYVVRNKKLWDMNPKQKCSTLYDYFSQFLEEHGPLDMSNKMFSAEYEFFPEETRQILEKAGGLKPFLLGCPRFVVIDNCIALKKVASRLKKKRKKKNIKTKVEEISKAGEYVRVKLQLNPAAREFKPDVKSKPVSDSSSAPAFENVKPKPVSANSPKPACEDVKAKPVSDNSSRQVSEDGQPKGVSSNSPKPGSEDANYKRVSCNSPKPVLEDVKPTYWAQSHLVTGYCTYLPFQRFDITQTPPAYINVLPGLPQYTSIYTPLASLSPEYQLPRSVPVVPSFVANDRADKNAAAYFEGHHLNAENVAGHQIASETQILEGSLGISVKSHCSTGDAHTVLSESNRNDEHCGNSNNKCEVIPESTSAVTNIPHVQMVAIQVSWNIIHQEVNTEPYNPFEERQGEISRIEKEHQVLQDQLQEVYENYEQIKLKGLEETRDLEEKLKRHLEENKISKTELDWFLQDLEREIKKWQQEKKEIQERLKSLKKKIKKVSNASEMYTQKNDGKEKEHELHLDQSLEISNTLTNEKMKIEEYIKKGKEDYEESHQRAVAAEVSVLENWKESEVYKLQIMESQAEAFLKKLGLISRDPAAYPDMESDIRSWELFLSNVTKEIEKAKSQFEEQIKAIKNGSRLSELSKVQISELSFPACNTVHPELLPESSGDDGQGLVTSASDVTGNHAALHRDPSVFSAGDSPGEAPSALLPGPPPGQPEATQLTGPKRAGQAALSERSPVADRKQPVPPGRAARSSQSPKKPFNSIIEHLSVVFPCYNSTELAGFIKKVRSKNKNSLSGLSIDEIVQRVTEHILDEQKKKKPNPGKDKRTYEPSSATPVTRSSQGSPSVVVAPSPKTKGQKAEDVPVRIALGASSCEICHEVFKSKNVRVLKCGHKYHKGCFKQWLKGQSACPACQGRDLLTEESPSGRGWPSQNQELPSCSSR
UniProt Q92551: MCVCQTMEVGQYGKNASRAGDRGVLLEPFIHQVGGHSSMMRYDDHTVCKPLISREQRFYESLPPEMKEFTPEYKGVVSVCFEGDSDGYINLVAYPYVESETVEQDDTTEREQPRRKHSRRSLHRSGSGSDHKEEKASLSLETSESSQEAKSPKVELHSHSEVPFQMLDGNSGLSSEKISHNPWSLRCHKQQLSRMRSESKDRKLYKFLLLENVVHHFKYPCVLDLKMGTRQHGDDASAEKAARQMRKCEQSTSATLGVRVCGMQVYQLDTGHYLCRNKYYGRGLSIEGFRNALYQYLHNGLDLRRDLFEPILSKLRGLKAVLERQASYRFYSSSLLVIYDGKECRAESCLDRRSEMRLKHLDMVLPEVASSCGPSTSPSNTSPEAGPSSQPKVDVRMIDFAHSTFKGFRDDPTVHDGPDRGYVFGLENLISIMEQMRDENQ
UniProt Q96PV7: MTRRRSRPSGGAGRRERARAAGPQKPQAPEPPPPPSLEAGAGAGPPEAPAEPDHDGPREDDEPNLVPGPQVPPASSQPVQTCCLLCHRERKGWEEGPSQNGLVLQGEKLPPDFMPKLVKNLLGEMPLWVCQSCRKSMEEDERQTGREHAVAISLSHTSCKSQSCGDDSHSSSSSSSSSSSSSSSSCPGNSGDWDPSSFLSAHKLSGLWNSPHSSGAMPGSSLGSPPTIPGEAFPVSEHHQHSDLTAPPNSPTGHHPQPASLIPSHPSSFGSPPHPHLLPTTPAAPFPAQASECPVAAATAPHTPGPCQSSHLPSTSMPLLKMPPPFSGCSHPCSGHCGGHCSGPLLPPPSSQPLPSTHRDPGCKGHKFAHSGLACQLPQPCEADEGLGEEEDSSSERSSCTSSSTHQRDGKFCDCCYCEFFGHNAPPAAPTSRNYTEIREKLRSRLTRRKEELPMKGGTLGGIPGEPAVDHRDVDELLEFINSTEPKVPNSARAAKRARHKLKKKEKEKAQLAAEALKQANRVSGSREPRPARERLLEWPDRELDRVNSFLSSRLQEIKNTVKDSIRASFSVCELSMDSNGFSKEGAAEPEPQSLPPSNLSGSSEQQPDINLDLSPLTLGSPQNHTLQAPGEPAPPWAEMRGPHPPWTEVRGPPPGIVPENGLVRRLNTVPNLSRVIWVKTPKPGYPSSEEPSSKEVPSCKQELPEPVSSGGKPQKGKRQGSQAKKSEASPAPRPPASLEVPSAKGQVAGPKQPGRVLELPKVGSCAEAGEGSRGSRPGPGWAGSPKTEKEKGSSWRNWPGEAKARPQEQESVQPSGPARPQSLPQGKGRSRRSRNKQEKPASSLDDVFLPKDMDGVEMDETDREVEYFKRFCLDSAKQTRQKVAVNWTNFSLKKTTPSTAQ
Chromosome 11 open reading frame 56 (C11orf56) (Q8N612, form named): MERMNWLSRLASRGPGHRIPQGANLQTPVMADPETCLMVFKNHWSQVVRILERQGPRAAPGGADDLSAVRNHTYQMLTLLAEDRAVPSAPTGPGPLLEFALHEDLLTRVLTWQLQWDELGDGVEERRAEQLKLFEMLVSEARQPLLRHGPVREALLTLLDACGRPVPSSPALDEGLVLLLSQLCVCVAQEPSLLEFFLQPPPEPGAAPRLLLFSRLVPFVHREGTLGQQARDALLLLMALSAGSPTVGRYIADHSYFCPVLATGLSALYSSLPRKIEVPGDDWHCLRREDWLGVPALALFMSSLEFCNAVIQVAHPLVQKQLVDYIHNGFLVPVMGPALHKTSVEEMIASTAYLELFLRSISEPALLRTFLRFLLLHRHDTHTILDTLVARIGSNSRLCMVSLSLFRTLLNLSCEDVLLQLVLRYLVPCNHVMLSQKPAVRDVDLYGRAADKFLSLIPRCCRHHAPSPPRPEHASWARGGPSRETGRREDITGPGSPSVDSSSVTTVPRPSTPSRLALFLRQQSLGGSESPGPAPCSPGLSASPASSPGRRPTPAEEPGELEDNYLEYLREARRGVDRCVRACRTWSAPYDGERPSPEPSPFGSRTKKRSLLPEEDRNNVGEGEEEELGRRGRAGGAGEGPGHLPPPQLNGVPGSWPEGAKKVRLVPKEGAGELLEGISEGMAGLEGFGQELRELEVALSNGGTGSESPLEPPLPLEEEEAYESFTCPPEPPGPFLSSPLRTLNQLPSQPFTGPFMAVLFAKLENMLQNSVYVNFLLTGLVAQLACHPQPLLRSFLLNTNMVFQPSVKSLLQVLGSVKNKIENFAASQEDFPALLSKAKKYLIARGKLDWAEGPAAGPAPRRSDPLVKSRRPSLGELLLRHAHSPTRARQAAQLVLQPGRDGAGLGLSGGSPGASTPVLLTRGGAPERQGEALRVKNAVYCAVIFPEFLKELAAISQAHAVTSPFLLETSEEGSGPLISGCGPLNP
UniProt Q6PJ21: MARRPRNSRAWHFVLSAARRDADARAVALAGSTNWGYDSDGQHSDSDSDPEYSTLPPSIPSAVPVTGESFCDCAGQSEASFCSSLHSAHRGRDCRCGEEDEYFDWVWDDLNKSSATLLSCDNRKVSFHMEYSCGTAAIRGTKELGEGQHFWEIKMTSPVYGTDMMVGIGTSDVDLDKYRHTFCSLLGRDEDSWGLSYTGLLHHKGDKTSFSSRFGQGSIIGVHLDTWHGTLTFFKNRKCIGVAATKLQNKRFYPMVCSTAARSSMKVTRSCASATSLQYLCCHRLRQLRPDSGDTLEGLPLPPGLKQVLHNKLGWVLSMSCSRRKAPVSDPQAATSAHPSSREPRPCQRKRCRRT
UniProt Q96JG8, residues 1-739: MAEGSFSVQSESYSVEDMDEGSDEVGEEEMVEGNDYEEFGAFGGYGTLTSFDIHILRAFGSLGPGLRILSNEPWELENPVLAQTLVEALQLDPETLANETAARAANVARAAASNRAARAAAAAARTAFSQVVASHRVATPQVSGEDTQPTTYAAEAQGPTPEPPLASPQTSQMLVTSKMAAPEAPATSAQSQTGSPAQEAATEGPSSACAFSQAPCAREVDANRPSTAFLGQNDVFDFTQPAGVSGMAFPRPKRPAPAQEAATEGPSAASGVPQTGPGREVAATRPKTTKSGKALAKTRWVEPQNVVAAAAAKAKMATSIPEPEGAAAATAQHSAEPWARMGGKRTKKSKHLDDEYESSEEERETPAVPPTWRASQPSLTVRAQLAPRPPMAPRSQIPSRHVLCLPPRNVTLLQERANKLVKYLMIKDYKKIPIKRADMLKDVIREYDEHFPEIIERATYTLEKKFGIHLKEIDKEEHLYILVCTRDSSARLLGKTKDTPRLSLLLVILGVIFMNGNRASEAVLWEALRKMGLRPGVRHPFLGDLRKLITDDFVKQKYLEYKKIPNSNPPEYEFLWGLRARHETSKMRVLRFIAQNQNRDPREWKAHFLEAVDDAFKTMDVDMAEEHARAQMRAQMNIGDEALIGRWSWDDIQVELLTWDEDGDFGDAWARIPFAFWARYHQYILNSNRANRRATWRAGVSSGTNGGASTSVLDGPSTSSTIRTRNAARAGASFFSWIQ
Kruppel-like factor 4 (gut) (KLF4) (O43474, form named): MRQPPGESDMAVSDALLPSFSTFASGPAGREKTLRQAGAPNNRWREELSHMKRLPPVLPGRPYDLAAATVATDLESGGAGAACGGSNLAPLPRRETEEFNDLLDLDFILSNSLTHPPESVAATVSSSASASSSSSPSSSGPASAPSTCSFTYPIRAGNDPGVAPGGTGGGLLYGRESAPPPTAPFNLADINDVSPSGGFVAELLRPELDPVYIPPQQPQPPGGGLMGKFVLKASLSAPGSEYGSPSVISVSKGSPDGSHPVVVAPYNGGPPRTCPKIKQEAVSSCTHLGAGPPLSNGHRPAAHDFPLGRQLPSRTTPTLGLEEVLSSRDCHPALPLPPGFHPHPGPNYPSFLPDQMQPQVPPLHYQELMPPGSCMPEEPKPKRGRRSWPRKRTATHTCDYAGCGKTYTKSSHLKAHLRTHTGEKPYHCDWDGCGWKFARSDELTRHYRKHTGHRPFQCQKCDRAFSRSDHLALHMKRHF
UniProt P13202: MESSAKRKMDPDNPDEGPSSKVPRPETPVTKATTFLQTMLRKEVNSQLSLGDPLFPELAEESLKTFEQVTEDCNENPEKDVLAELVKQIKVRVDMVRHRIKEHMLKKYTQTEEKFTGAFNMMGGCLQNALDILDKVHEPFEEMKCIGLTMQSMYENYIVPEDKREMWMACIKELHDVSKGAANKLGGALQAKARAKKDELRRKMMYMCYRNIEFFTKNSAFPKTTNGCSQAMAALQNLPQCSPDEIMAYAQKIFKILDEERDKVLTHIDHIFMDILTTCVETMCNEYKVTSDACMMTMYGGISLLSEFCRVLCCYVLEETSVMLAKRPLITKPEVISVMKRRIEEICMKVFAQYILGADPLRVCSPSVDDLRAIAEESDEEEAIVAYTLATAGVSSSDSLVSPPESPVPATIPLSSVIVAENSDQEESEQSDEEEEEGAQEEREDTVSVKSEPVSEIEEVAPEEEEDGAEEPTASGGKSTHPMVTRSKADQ

Legend:
Experiment in all cases: peptide or protein array; only the binder purified
[1] = target: TPRDI (tetratricopeptide repeat) (human) (UniProt P53804)
[2] = target: T1, Immediate-early response 2 (human) (UniProt Q9BTL4)
T1 sequence: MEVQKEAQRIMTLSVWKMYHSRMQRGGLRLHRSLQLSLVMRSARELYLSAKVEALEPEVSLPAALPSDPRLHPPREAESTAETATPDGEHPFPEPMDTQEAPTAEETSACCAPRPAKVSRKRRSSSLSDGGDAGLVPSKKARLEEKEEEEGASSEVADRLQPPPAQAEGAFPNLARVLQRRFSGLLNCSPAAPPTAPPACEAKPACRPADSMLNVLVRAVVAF

[3] = target: Inositol hexaphosphate kinase 1 (IHPK1) (human) (UniProt Q92551)
KIAA1931 protein (human) = KIAA1931 protein (human) (UniProt Q96PV7)
[4] = target: Chromosome 11 open reading frame 56 (C11orf56) (human) (UniProt Q8N612)
[5] = target: Transcriptional regulator ATRX (human) (UniProt P46100)
[6] = target: SplA/ryanodine receptor domain and SOCS box containing 3 (human) (UniProt Q6PJ21)
KIAA0681 protein (human) = target: T2, KIAA0681 protein (human) (UniProt Q9Y468)
T2 sequence: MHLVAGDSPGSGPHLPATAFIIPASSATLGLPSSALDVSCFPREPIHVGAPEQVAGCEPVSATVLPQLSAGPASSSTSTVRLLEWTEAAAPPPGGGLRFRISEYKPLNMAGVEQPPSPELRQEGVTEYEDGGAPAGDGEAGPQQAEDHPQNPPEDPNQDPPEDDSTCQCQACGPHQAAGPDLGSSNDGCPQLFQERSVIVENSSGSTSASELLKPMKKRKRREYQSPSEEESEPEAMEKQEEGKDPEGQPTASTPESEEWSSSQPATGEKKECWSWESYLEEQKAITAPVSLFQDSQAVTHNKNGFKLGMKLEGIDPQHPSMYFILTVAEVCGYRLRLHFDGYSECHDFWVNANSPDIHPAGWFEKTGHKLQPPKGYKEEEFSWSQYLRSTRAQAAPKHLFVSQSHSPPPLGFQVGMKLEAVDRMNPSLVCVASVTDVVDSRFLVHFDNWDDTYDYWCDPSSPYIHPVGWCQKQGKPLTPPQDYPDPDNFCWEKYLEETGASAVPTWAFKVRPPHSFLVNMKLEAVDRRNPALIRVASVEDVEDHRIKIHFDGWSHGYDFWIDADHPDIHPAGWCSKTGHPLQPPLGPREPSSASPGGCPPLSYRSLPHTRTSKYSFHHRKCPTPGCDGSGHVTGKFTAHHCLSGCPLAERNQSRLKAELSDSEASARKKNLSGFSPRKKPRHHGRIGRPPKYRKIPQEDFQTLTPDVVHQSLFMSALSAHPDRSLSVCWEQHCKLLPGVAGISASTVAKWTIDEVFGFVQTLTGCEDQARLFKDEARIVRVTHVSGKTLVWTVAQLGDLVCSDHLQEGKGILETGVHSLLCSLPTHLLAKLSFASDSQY

[7] = target: Melanoma antigen family D 4 (MAGED4) (human) (UniProt Q96JG8)
[8] = target: SAPS domain family, member 2 (SAPS2) (human) (UniProt O75170)
[9] = target: Kruppel-like factor 4 (gut) (KLF4) (human) (UniProt O43474)
[10] = target: T3, GTPase activating protein binding protein 2 (human) (UniProt Q9UN86)
T3 sequence: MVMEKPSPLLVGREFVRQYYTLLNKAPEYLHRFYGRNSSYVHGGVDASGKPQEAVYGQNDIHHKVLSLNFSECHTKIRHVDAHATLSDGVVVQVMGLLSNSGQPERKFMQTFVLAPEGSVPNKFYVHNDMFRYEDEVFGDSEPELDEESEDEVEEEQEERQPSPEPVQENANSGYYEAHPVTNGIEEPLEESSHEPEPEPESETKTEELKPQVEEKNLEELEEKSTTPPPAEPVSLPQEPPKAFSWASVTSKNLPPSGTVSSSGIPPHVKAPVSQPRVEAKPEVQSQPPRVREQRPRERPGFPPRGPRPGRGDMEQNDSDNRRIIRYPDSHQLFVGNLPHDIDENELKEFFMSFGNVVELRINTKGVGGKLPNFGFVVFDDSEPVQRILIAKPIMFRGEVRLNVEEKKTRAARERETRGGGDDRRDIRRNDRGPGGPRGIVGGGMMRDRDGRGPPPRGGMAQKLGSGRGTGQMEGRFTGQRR

[11] = target: Eukaryotic translation initiation factor 4B (EIF4B) (human) (UniProt P23588)
[12] = target: T4, CDCA4 Cell division cycle associated gene 4 (human) (UniProt Q9BXL8)
T4 sequence: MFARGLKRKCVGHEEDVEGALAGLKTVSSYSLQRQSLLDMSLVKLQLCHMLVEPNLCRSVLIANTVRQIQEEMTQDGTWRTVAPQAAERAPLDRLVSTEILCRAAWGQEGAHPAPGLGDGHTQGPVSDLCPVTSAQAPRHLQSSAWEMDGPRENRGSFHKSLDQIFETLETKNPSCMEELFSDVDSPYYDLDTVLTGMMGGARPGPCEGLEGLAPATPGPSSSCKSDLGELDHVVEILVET

Measured: binding

Human cytomegalovirus immediate-early protein 1 (from UniProt P13202 1-491)
binds: all assays above
